Article PMC6728282
Read-outs that look alike come from different tables or passages of the source. No constants are given. Whether binding was seen depends on the method and setting. Binding seen in cells or lysates may run through a third protein. Some entries that bind do so weakly or less than the wild type. For some assays here: Tags and fused reporters may be left off the sequences shown.

The chains behind the UniProt entries cited, without tags or fusion partners.
UniProt P58334: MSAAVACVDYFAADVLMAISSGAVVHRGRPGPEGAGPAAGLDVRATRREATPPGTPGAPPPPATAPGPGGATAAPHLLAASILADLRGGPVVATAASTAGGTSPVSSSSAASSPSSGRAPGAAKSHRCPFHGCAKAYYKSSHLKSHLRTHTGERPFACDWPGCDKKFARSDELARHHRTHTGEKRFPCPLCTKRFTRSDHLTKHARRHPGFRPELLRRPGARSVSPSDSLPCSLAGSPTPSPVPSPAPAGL

Columns and labels:
[1] = biological target: T1, Flag-tagged mouse DISC1 (Disrupted-in-Schizophrenia 1) (mouse) (UniProt Q811T9); assay: co-IP; anti-Flag antibody IP from lysates of differentiated CAD cells expressing Flag-DISC1 and KLF16-HA; NP40 lysis buffer (150 mM NaCl, 50 mM Tris-HCl pH 8.0, 1% NP40), antibody 4 h or overnight at 4 °C, protein A-agarose
T1 sequence: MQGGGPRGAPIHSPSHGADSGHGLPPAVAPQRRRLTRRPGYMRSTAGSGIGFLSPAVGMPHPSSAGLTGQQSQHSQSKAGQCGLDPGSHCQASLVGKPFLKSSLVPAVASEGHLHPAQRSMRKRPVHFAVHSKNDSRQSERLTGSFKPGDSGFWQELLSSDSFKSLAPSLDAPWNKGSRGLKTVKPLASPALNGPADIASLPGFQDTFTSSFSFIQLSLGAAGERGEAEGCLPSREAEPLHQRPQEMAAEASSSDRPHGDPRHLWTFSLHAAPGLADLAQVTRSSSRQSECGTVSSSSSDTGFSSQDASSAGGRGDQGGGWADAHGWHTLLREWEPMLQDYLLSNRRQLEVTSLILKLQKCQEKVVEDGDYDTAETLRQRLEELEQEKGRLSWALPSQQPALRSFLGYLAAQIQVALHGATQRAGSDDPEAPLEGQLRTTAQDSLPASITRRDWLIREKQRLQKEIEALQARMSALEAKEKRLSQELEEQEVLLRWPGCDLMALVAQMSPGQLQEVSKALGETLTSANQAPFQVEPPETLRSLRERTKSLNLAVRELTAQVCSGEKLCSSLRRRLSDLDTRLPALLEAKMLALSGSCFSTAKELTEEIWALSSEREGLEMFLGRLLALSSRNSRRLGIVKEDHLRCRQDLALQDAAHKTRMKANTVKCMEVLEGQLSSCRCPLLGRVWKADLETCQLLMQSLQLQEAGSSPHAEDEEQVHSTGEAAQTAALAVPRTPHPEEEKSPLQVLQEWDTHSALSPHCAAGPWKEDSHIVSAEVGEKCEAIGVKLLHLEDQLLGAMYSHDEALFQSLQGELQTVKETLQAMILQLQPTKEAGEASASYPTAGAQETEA

[2] = biological target: T2, endogenous DISC1 of differentiated CAD cells (mouse (endogenous in CAD cells)) (UniProt Q811T9); assay: co-IP; IP of endogenous proteins (anti-SIN3A named for Fig. 3f; reciprocal IPs in Fig. 3e) from lysates of differentiated CAD cells expressing KLF16-HA, without or with Flag-DISC1 overexpression (which enhanced the KLF16-HA/SIN3A coIP); NP40 lysis buffer (150 mM NaCl, 50 mM Tris-HCl pH 8.0, 1% NP40), 4 °C, protein A-agarose
T2 sequence: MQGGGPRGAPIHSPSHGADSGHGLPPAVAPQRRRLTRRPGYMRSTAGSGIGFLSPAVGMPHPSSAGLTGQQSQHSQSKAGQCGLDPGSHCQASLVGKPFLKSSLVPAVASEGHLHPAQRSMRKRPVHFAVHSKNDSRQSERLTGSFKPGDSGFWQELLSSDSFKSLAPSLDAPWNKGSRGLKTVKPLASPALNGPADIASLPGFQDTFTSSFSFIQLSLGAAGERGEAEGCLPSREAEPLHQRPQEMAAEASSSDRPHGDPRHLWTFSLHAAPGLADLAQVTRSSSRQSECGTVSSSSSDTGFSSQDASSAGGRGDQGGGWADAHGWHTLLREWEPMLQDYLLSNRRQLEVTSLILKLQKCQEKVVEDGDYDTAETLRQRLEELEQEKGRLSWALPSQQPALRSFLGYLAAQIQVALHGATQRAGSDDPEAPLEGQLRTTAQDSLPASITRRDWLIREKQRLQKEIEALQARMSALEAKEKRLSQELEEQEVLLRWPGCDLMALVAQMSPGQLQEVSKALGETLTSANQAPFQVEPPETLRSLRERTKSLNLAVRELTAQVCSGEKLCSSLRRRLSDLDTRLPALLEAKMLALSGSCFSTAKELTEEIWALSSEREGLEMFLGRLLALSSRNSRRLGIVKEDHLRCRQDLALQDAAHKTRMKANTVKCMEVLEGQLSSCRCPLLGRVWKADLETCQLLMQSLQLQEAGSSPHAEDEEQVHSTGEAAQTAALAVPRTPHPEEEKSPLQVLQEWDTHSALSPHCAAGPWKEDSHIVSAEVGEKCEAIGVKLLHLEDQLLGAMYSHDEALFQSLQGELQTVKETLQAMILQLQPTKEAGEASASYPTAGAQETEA

[3] = biological target: T3, endogenous SIN3A of differentiated CAD cells (mouse (endogenous in CAD cells)) (UniProt Q60520); assay: as above
T3 sequence: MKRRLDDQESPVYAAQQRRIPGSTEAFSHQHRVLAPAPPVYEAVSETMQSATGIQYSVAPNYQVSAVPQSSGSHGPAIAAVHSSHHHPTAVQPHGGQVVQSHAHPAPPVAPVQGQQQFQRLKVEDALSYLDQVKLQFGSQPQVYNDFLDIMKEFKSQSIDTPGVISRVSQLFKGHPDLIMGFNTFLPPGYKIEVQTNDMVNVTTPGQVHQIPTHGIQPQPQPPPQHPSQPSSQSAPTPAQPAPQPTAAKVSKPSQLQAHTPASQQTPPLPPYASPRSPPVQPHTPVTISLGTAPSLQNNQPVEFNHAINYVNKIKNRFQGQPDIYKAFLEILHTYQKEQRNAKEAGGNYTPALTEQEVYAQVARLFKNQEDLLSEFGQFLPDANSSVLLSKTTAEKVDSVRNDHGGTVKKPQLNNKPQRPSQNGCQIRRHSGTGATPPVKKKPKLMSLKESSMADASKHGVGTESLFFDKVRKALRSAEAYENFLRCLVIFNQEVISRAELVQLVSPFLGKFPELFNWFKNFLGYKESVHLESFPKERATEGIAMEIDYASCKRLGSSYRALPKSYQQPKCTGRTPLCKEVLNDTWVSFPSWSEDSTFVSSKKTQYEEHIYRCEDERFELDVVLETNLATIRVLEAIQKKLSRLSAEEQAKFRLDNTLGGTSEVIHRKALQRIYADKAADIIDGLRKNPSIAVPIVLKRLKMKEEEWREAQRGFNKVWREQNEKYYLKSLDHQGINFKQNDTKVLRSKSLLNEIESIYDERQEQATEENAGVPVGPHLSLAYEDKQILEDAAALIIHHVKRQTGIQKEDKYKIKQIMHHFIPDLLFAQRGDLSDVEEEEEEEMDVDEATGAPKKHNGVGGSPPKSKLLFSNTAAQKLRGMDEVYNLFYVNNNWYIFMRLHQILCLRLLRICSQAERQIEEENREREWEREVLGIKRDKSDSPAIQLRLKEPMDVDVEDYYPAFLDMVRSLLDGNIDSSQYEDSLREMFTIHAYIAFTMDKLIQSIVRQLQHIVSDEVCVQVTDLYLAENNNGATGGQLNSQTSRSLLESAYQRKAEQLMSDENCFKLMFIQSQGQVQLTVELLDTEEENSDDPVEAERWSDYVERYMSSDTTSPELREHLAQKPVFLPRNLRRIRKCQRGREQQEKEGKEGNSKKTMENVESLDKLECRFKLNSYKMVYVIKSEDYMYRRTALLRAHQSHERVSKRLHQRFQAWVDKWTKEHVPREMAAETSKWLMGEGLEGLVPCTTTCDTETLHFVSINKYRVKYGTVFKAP

[4] = biological target: T3, endogenous SIN3A of differentiated CAD cells (mouse (endogenous in CAD cells)); assay: as above; remark: listed apart in the source
[5] = biological target: T2, endogenous DISC1 of differentiated CAD cells (mouse (endogenous in CAD cells)); assay: as above; remark: listed apart in the source

KLF16-HA (mouse Krüppel-like factor 16, HA-tagged) (from UniProt P58334 1-251)
binding [1]: binds | binding [2]: binds | binding [3]: binds

B1: endogenous DISC1 of differentiated CAD cells (protein, UniProt Q811T9 1-852)
chain: MQGGGPRGAPIHSPSHGADSGHGLPPAVAPQRRRLTRRPGYMRSTAGSGIGFLSPAVGMPHPSSAGLTGQQSQHSQSKAGQCGLDPGSHCQASLVGKPFLKSSLVPAVASEGHLHPAQRSMRKRPVHFAVHSKNDSRQSERLTGSFKPGDSGFWQELLSSDSFKSLAPSLDAPWNKGSRGLKTVKPLASPALNGPADIASLPGFQDTFTSSFSFIQLSLGAAGERGEAEGCLPSREAEPLHQRPQEMAAEASSSDRPHGDPRHLWTFSLHAAPGLADLAQVTRSSSRQSECGTVSSSSSDTGFSSQDASSAGGRGDQGGGWADAHGWHTLLREWEPMLQDYLLSNRRQLEVTSLILKLQKCQEKVVEDGDYDTAETLRQRLEELEQEKGRLSWALPSQQPALRSFLGYLAAQIQVALHGATQRAGSDDPEAPLEGQLRTTAQDSLPASITRRDWLIREKQRLQKEIEALQARMSALEAKEKRLSQELEEQEVLLRWPGCDLMALVAQMSPGQLQEVSKALGETLTSANQAPFQVEPPETLRSLRERTKSLNLAVRELTAQVCSGEKLCSSLRRRLSDLDTRLPALLEAKMLALSGSCFSTAKELTEEIWALSSEREGLEMFLGRLLALSSRNSRRLGIVKEDHLRCRQDLALQDAAHKTRMKANTVKCMEVLEGQLSSCRCPLLGRVWKADLETCQLLMQSLQLQEAGSSPHAEDEEQVHSTGEAAQTAALAVPRTPHPEEEKSPLQVLQEWDTHSALSPHCAAGPWKEDSHIVSAEVGEKCEAIGVKLLHLEDQLLGAMYSHDEALFQSLQGELQTVKETLQAMILQLQPTKEAGEASASYPTAGAQETEA
binding [4]: binds

B2: endogenous SIN3A of differentiated CAD cells (protein, UniProt Q60520 1-1274)
chain: MKRRLDDQESPVYAAQQRRIPGSTEAFSHQHRVLAPAPPVYEAVSETMQSATGIQYSVAPNYQVSAVPQSSGSHGPAIAAVHSSHHHPTAVQPHGGQVVQSHAHPAPPVAPVQGQQQFQRLKVEDALSYLDQVKLQFGSQPQVYNDFLDIMKEFKSQSIDTPGVISRVSQLFKGHPDLIMGFNTFLPPGYKIEVQTNDMVNVTTPGQVHQIPTHGIQPQPQPPPQHPSQPSSQSAPTPAQPAPQPTAAKVSKPSQLQAHTPASQQTPPLPPYASPRSPPVQPHTPVTISLGTAPSLQNNQPVEFNHAINYVNKIKNRFQGQPDIYKAFLEILHTYQKEQRNAKEAGGNYTPALTEQEVYAQVARLFKNQEDLLSEFGQFLPDANSSVLLSKTTAEKVDSVRNDHGGTVKKPQLNNKPQRPSQNGCQIRRHSGTGATPPVKKKPKLMSLKESSMADASKHGVGTESLFFDKVRKALRSAEAYENFLRCLVIFNQEVISRAELVQLVSPFLGKFPELFNWFKNFLGYKESVHLESFPKERATEGIAMEIDYASCKRLGSSYRALPKSYQQPKCTGRTPLCKEVLNDTWVSFPSWSEDSTFVSSKKTQYEEHIYRCEDERFELDVVLETNLATIRVLEAIQKKLSRLSAEEQAKFRLDNTLGGTSEVIHRKALQRIYADKAADIIDGLRKNPSIAVPIVLKRLKMKEEEWREAQRGFNKVWREQNEKYYLKSLDHQGINFKQNDTKVLRSKSLLNEIESIYDERQEQATEENAGVPVGPHLSLAYEDKQILEDAAALIIHHVKRQTGIQKEDKYKIKQIMHHFIPDLLFAQRGDLSDVEEEEEEEMDVDEATGAPKKHNGVGGSPPKSKLLFSNTAAQKLRGMDEVYNLFYVNNNWYIFMRLHQILCLRLLRICSQAERQIEEENREREWEREVLGIKRDKSDSPAIQLRLKEPMDVDVEDYYPAFLDMVRSLLDGNIDSSQYEDSLREMFTIHAYIAFTMDKLIQSIVRQLQHIVSDEVCVQVTDLYLAENNNGATGGQLNSQTSRSLLESAYQRKAEQLMSDENCFKLMFIQSQGQVQLTVELLDTEEENSDDPVEAERWSDYVERYMSSDTTSPELREHLAQKPVFLPRNLRRIRKCQRGREQQEKEGKEGNSKKTMENVESLDKLECRFKLNSYKMVYVIKSEDYMYRRTALLRAHQSHERVSKRLHQRFQAWVDKWTKEHVPREMAAETSKWLMGEGLEGLVPCTTTCDTETLHFVSINKYRVKYGTVFKAP
binding [5]: binds
